Publication PMC8486247

How the values were obtained:
[1] = system: ZmbHLH124 T-ORG (Zea mays (drought-tolerant line PH4CV allele)); test: EMSA; details: LightShift Chemiluminescent EMSA Kit protocol (binding buffer, pH, temperature not stated); probes annealed in 10 mM Tris-HCl pH 7.5, 1 mM EDTA, 100 mM NaCl; recombinant protein
[2] = system: ZmbHLH124 T-ORG (Zea mays (drought-tolerant line PH4CV allele)); test: competition with a labelled probe; details: excess unlabelled competitor vs labelled N1; LightShift Chemiluminescent EMSA Kit protocol (binding buffer, pH, temperature not stated); probes annealed in 10 mM Tris-HCl pH 7.5, 1 mM EDTA, 100 mM NaCl; recombinant protein; label: unlabelled

| Sequence | binding result [1] | binding result [2] |
| --- | --- | --- |
| TCGCTCTCACTTCAATACACCACGTCTTCGCCAGCCTGTTCTGTTCCACTGACACACG (double strand) [pZmDREB2A-mu1,2] | binds | – |
| TCGCTCTCACTTCAATACACGGAAACTTGGCCAGCCTGTTCTGTTCCACTGACACACG (double strand) [pZmDREB2A-mu1,2,3] | no binding | – |
| TCGCTCTCACTTCAATACACCACGTCCACGTGAGCCTGTTCTGTTCCACTGACACACG (double strand) [pZmDREB2A P1 probe (WT)] | binds | – |
| TCGCTCTCACTTCAATACACCACGTCCACGTGAGCCTGTTCTGTTCCACTGACACACG (double strand) [pZmDREB2A P1 cold competitor] | – | binds |
| TCGCTCTCACTTCAATACACGGAAACCACGTGAGCCTGTTCTGTTCCACTGACACACG (double strand) [pZmDREB2A-mu2,3] | binds | – |

For at least one entry, the source does not settle the construct or the ends of the probe. For some assays here: No signal at the amounts used counts as a negative. For some assays here: At least one verdict was read from the data and is not stated in words by the source.
